The list shows only some results of the screen, not a fair sample: it is rich in T/C values a quarter to a half above the control, in often repeated tests (any T/C) and in doses without a T/C. Further doses and runs are listed elsewhere. T/C gives the treated animals as a percentage of the vehicle group. Some doses have a count of surviving animals in place of a T/C: the source files T/C as zero there, which appears to mark a toxic dose or a test without result, not a measured value. Some survivor counts are full or nearly so, which does not show that the dose was tolerated: survival well below the control is almost never listed, so the zero probably covers shortened survival too. Counts of survivors are from the toxicity check (mostly the fifth day) where no day follows; animals may have died later. Schedule codes are those of the source, taken here to give the interval after Q, in days (D) or hours (H), and the number of doses after X. Some doses were run more than once; their values stand side by side, smallest first. Where survival is the endpoint, the PubChem record calls one and a half times the control and up active, and a quarter to a half above the control has no call in these data; cut-offs in other NCI protocols can differ. Additions like (4×) stand for listed records that agree. Some T/C values are followed by the survivors on the day toxicity was checked, most often the fifth; without a count, all were alive then.
System: BDF1 mice, P388 leukemia ip, median survival T/C
Experiment: NCI In Vivo Anticancer Drug Screen. Data for tumor model P388 Leukemia (intraperitoneal) in B6D2F1 (BDF1) mice
Conditions: T/C endpoint: median survival time, higher T/C = longer survival
Outline: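 Mice carrying the transplantable tumour receive compound or vehicle. Survival is followed in each arm, and the treated measure is divided by the vehicle measure.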

[1] = dose: 32.0 mg/kg/injection, schedule: Q01DX010 (ip), vehicle: saline
[2] = dose: 50.0 mg/kg/injection, schedule: Q01DX009 (ip), vehicle: saline with Tween-80
[3] = dose: 100.0 mg/kg/injection, schedule: Q01DX009 (ip), vehicle: saline with Tween-80

Cc1c(N)nc([C@H](CC(N)=O)NC[C@H](N)C(N)=O)nc1C(=O)N[C@H](C(=O)N[C@H](C)[C@@H](O)[C@H](C)C(=O)N[C@H](C(=O)NCCc1nc(-c2nc(C(=O)NCCC[S+](C)C)cs2)cs1)[C@@H](C)O)C(OC1OC(CO)C(O)C(O)C1OC1OC(CO)C(O)C(OC(N)=O)C1O)c1cnc[nH]1 (some centres undefined)
survivor count (dose: 0.03 mg/kg/injection, schedule: Q03HX040 (ip), vehicle: saline): 10 of 10
survivor count (dose: 0.06 mg/kg/injection, schedule: Q03HX040 (ip), vehicle: saline): 10 of 10
survivor count (dose: 0.25 mg/kg/injection, schedule: Q03HX040 (ip), vehicle: saline): 9 of 10
survivor count (dose: 1.0 mg/kg/injection, schedule: Q03HX040 (ip), vehicle: saline): 9 of 10
T/C (dose: 2.0 mg/kg/injection, schedule: Q01DX005 (ip), vehicle: water): 125 % of control
T/C (dose: 2.0 mg/kg/injection, schedule: Q01DX010 (ip), vehicle: saline): 90, 110, 120, 130 % of control (2×)
T/C (dose: 2.0 mg/kg/injection, schedule: Q03HX024 (ip), vehicle: saline): 127 % of control (2×)
survivor count (dose: 2.0 mg/kg/injection, schedule: Q03HX040 (ip), vehicle: saline): 5 of 10
T/C (dose: 3.5 mg/kg/injection, schedule: Q01DX009 (ip), vehicle: saline): 131 % of control
T/C (dose: 4.0 mg/kg/injection, schedule: Q01DX010 (ip), vehicle: saline): 110, 120, 130, 140, 170 % of control
T/C (dose: 4.0 mg/kg/injection, schedule: Q03HX016 (ip), vehicle: saline): 136 % of control
T/C (dose: 4.0 mg/kg/injection, schedule: Q03HX024 (ip), vehicle: saline): 127 % of control
survivor count (dose: 4.0 mg/kg/injection, schedule: Q03HX040 (ip), vehicle: saline): 6 of 10
T/C (dose: 5.3 mg/kg/injection, schedule: Q01DX009 (ip), vehicle: saline): 127 and 145 % of control
T/C (dose: 6.5 mg/kg/injection, schedule: Q01DX009 (ip), vehicle: saline): 127 % of control
T/C (dose: 7.81 mg/kg/injection, schedule: Q01DX010 (ip), vehicle: saline): 140 % of control
T/C (dose: 8.0 mg/kg/injection, schedule: Q01DX009 (ip), vehicle: saline, evaluated on day 5): 124 % of control
T/C (dose: 8.0 mg/kg/injection, schedule: Q01DX009 (ip), vehicle: saline, evaluated on day 30): 126 % of control
T/C (dose: 8.0 mg/kg/injection, schedule: Q01DX009 (ip), vehicle: saline, evaluated on day 45): 136 and 145 % of control
T/C (dose: 8.0 mg/kg/injection, schedule: Q01DX009 (ip), vehicle: saline, evaluated on day 60): 108, 125, 127, 130 % of control
T/C (dose: 8.0 mg/kg/injection, schedule: Q01DX010 (ip), vehicle: saline): 115, 130, 140, 160, 215 % of control
T/C (dose: 8.0 mg/kg/injection, schedule: Q03HX008 (ip), vehicle: saline): 127 % of control
T/C (dose: 12.0 mg/kg/injection, schedule: Q01DX009 (ip), vehicle: saline): 131 and 140 % of control
T/C (dose: 15.62 mg/kg/injection, schedule: Q01DX010 (ip), vehicle: saline): 145 % of control
T/C (dose: 16.0 mg/kg/injection, schedule: Q01DX009 (ip), vehicle: saline, evaluated on day 5): 124 % of control
T/C (dose: 16.0 mg/kg/injection, schedule: Q01DX009 (ip), vehicle: saline, evaluated on day 60): 120, 127, 130 % of control
T/C (dose: 16.0 mg/kg/injection, schedule: Q01DX010 (ip), vehicle: saline): 110 (2×), 140, 150, 170 % of control
survivor count (dose: 16.0 mg/kg/injection, schedule: Q03HX024 (ip), vehicle: saline): 9 of 10
T/C (dose: 16.0 mg/kg/injection, schedule: Q04DX003 (ip), vehicle: other): 126 % of control
T/C (dose: 18.0 mg/kg/injection, schedule: Q01DX009 (ip), vehicle: saline): 127 % of control
T/C (dose: 31.25 mg/kg/injection, schedule: Q01DX010 (ip), vehicle: saline): 127 % of control
T/C (dose: 32.0 mg/kg/injection, schedule: Q01DX001 (ip), vehicle: saline): 136 % of control
survivor count (dose: 32.0 mg/kg/injection, schedule: Q01DX005 (ip), vehicle: water): 3 of 6
T/C (dose: 32.0 mg/kg/injection, schedule: Q01DX009 (ip), vehicle: saline, evaluated on day 5): 104 % of control
T/C (dose: 32.0 mg/kg/injection, schedule: Q01DX009 (ip), vehicle: saline, evaluated on day 60): 104, 110, 127 % of control
survivor count (dose: 32.0 mg/kg/injection, schedule: Q01DX009 (ip), vehicle: water): 5 of 6
T/C [1]: 95, 110 (2×), 125 % of control
survivor count [1]: 6 of 6
T/C (dose: 32.0 mg/kg/injection, schedule: Q04DX003 (ip), vehicle: saline): 127 % of control
T/C (dose: 32.0 mg/kg/injection, schedule: Q08DX002 (ip), vehicle: saline): 127 % of control
survivor count (dose: 62.5 mg/kg/injection, schedule: Q01DX010 (ip), vehicle: saline): 6 of 6
survivor count (dose: 64.0 mg/kg/injection, schedule: Q01DX005 (ip), vehicle: water): 0 of 6
survivor count (dose: 64.0 mg/kg/injection, schedule: Q01DX009 (ip), vehicle: saline): 10 of 10
survivor count (dose: 64.0 mg/kg/injection, schedule: Q01DX010 (ip), vehicle: saline): 2 of 6, 4 of 6, 5 of 6
survivor count (dose: 64.0 mg/kg/injection, schedule: Q04DX003 (ip), vehicle: other): 6 of 6
T/C (dose: 64.0 mg/kg/injection, schedule: Q08DX002 (ip), vehicle: saline): 136 % of control
survivor count (dose: 125.0 mg/kg/injection, schedule: Q01DX010 (ip), vehicle: saline): 5 of 6
survivor count (dose: 128.0 mg/kg/injection, schedule: Q01DX001 (ip), vehicle: saline): 7 of 10
survivor count (dose: 128.0 mg/kg/injection, schedule: Q04DX003 (ip), vehicle: other): 6 of 6
survivor count (dose: 128.0 mg/kg/injection, schedule: Q04DX003 (ip), vehicle: saline): 8 of 10
survivor count (dose: 250.0 mg/kg/injection, schedule: Q01DX010 (ip), vehicle: saline): 0 of 6

Oc1c(-c2ccccc2)cc(-[n+]2c(-c3ccccc3)cc(-c3ccccc3)cc2-c2ccccc2)cc1-c1ccccc1
T/C (dose: 3.0 mg/kg/injection, schedule: Q01DX009 (ip), vehicle: saline with Tween-80): 130 % of control

CC1=CC(c2ccc3c(c2)OCO3)c2c(c3ccccc3oc2=O)O1 (centres undefined)
survivor count (dose: 25.0 mg/kg/injection, schedule: Q01DX009 (ip), vehicle: water): 6 of 6
survivor count (dose: 50.0 mg/kg/injection, schedule: Q01DX009 (ip), vehicle: water): 5 of 6
survivor count (dose: 100.0 mg/kg/injection, schedule: Q01DX009 (ip), vehicle: water): 3 of 6
survivor count (dose: 200.0 mg/kg/injection, schedule: Q01DX009 (ip), vehicle: water): 3 of 6
survivor count (dose: 400.0 mg/kg/injection, schedule: Q01DX009 (ip), vehicle: water): 2 of 6

CCOC(=O)C(CNc1ccccc1)C(=O)OCC
survivor count [2]: 6 of 6
survivor count [3]: 6 of 6

c1ccc(OCCC[P+](c2ccccc2)(c2ccccc2)c2ccccc2)cc1
T/C (dose: 6.25 mg/kg/injection, schedule: Q01DX010 (ip), vehicle: carboxymethylcellulose (CMC)): 130 % of control [5 of 6 alive]
T/C (dose: 6.25 mg/kg/injection, schedule: Q01DX010 (ip), vehicle: steroid suspending solution): 140 % of control
T/C (dose: 12.5 mg/kg/injection, schedule: Q01DX010 (ip), vehicle: steroid suspending solution): 130 % of control
survivor count (dose: 25.0 mg/kg/injection, schedule: Q01DX010 (ip), vehicle: carboxymethylcellulose (CMC)): 2 of 6
survivor count (dose: 25.0 mg/kg/injection, schedule: Q01DX010 (ip), vehicle: steroid suspending solution): 3 of 6
survivor count (dose: 50.0 mg/kg/injection, schedule: Q01DX010 (ip), vehicle: carboxymethylcellulose (CMC)): 0 of 6
survivor count (dose: 50.0 mg/kg/injection, schedule: Q01DX010 (ip), vehicle: steroid suspending solution): 1 of 6

COCCCNC1=C(C#N)C(=O)NC(c2cccc([N+](=O)[O-])c2)S1 (centres undefined)
T/C [2]: 131 % of control
T/C [3]: 131 % of control
T/C (dose: 200.0 mg/kg/injection, schedule: Q01DX009 (ip), vehicle: saline with Tween-80): 147 % of control
